Laboratory results published in publication PMC6751215.
Results are given in words; binding and its absence hold for the method and conditions named. Some binding calls cover weakened binding; strength is not graded here.

Target: VIRE2-… PROTEIN2 (VIP2), full length (Arabidopsis) (UniProt Q9FPW4)
Test: two-hybrid; VIP2 constructs and VirE2 in the DNA-BD vector pXDGAT-CY86 (baits), full-length VIP2 and VirE2 in the DNA-AD vector pGADT7-Rec7G (preys); co-transformed into AH109 (the legend says mating of AH109 and MaV204K); selection on SD lacking Ade, His, Trp, Leu with 10 mM 3-AT and X-gal; LacZ quantified by beta-galactosidase activity

binding: binds
B1: VIRE2-… PROTEIN2 (VIP2), full length (protein, UniProt Q9FPW4 1-614)
chain: MSNLHSSLNGSASNLPDGSGRSFTASYSGQSGAPSPSFHHTGNLQGLHNIHGNYNVGNMQGTLTSRNSSMNSIPSAGVQQPNGSFSSGRFASNNLPVNLSQLSHGSSHGHSGIPNRGLNVVGNPGFSSNANGVGGSIPGILSTSAGLSNRNSVPGMGISQLLGNSGPRITNSMGNMVGGGNLGRNISSGGLSIPGLSSRLNLAANSGSGLNVQGQNRMMGGVLPQGSQVMSMLGNSYHTGGGPLSQNHVQSVNNMMLSDHPNDSSLFDINNDFPQLTSRPGSAGGTQGHLGSLRKQGLGVPLVQQNQEFSIQNEDFPALPGYKGGNSEYPMDLHQKEQLHDNAMSMMHSQNFSMGRSGGFNLGATYSSHRPQQQPQHTSSTGGLQGLGLRPLSSPNAVSSIGYDQLIQQYQQHQNQSQFPVQQMSSINQFRDSEMKSTQSEADPFCLLGLLDVLNRSNPELTSLALGIDLTTLGLDLNSTGNLYKTFASPWTNEPAKSEVEFTVPNCYYATEPPPLTRASFKRFSYELLFYTFYSMPKDEAQLYAADELYERGWFYHKELRVWFFRVGEPLVRAATYERGTYEYLDPNSFKTVRKEHFVIKYELMEKRPSLLQL
